## Primary screen of a compound library

Amino acid sequences for entries named in this document (tags omitted).
UniProt E9BF75, entry or part of it: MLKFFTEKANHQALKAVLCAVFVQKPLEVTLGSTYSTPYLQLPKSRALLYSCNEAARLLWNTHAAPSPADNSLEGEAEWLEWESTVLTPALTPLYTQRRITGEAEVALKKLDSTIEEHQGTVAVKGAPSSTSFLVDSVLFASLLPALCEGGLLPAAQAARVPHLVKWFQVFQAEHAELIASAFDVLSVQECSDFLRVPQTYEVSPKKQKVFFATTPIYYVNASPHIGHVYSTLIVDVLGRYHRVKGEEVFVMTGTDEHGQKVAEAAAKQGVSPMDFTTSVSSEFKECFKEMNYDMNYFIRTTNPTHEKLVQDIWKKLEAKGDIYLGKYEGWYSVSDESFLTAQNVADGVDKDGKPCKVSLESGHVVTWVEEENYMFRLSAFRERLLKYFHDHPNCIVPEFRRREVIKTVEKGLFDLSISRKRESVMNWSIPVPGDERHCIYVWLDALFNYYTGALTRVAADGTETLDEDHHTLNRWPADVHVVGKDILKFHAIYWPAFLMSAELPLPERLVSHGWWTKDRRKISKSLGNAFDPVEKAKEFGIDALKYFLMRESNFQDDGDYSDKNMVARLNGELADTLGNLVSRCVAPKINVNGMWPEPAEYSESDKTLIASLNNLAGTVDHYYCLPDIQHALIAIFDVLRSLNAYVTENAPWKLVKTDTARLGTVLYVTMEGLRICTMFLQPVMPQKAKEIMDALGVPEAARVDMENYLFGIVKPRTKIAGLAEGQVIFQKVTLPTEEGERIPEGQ

The values are deposited in ChEMBL (CHEMBL3988442, “University of Dundee, Small-Polar-MMV Screening Library” (2021)).

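Primary screen of methionyl-tRNA synthetase; the read-out is not stated. Target: Methionyl-tRNA synthetase (putative), Leishmania donovani (UniProt E9BF75). The test concentration is not given. The values are filed as inhibition. Of about 68,000 compounds tested this way, about 24 (0.035%) reached 50% or more in at least one test.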

All values are in %.
The controls that fix the scale are not given in the record; negative values are as filed.
The compounds are a random part of those screened.

For CCn1c(CN2CCN(CC(N)=O)CC2)nc2c(F)cccc21 the result was 15.31%. CCN(C)C(=O)c1ccc(N(C)Cc2cc(-c3ccncc3)no2)nc1 gave 12.9%. With COc1ccc(F)cc1C[S+]([O-])CC(=O)NCC(C)C (stereo not shown) the screen gave 6.069%. With CC(NC(=O)NCc1c(F)cccc1Cl)(C(=O)O)c1ccco1 (stereo not shown) the screen gave 14.86%. CC(=O)Nc1nc(C2CCN(C(=O)c3ccncc3)CC2)cs1 gave 12.99%. With c1csc(-c2nc(CNC3CCc4ncnn4C3)co2)c1 (stereo not shown) the screen gave 10.93%. CC(C)COC(C)C(=O)N1CCC(C)CC1 (stereo not shown) gave 1.272%.

For Cc1nc(C)n(CC2CN(Cc3cccc4ccccc34)CCO2)n1 (stereo not shown) the result was 19.43%. For COc1ccc(COCC(=O)N2CCC(c3nncn3C)CC2)cc1 the result was 9.044%. O=C(CN1CCCC1Cn1cncn1)Nc1nccs1 (stereo not shown) gave 13.88%. Result for CCN1CCN(CC(O)c2ccc(OC(F)(F)F)cc2)CC1 (stereo not shown) was 9.804%. With CC(NC(=O)Cn1cccn1)c1ccc2c(c1)OCCCO2 (stereo not shown) the screen gave 0.4049%. For CC(O)CN1CCc2onc(-c3ccccc3F)c2C1 (stereo not shown) the result was 11.54%. Cc1nc2c(c(NC3CCN(Cc4ccccc4)CC3)n1)CCNCC2 read 9.48%.

Result for COc1cccc(-c2nc(CNCCn3cccn3)cs2)c1 was 9.816%. CN1CCN([C@H]2CCN(C(=O)c3nn(C)cc3Cl)C[C@H]2CCCO)CC1 read 11.38%. Result for CS(=O)(=O)N1C[C@H]2CCCN(Cc3ccsc3)[C@H]2C1 was -1.73%. For CNc1ncccc1CN1CCN(C)CC(C(=O)N(C)C)C1 (stereo not shown) the result was -1.587%. Result for CN(C)S(=O)(=O)c1ccc2c(c1)N(Cc1ccccn1)CCC2 was 25.54%. CCOc1ccc(C(=O)N(Cc2cnn(C)c2)C(C)C)cc1 read 11.08%. Cc1cc(C)c(CNC(=O)N(C)Cc2cccc(C#N)c2)c(=O)[nH]1 read 14.29%.

Result for CC(C)(O)CCc1cccc(C(=O)N2CCC[C@H]2C(N)=O)c1 was 18.05%. CCN1CCN(S(=O)(=O)c2cc(C)c(C)cc2Br)CC1 read -11.66%. CC[C@H]1NCCC[C@]12CCC(=O)N2Cc1ccncc1 gave 15.15%. For Cc1cncc(C(=O)N2CCCC(O)(CO)C2)c1 (stereo not shown) the result was 10.59%. For COc1ccc2c(c1OC)Cc1c-2nc(N)c(C#N)c1C1CCOC1 (stereo not shown) the result was 16.1%. O=C(Cn1cc(C(=O)O)cn1)Nc1c(Cl)cccc1Cl read 3.769%. With Cc1ccc(N2CC[C@@H]3CN(Cc4c[nH]cn4)C[C@@H]3C2)nn1 the screen gave 0.7299%.

With COCCN1CCO[C@H]2CN(Cc3cccc(C)n3)C[C@H]21 the screen gave 14.08%. For COc1cc(N2C[C@H](OCc3cccnc3)[C@H]3OCCC[C@H]32)ncn1 the result was 6.875%. Result for CCn1nc(C)c2c1cnn2CCNS(=O)(=O)c1cccs1 was 9.915%. Result for CN1CC2(CCCN(Cc3nnc(-c4cccc(F)c4)o3)C2)OC1=O (stereo not shown) was 15%.

3 of the entries, repeated:

SMILES,Inhibition
CC(C)(O)CCc1cccc(C(=O)N2CCC[C@H]2C(N)=O)c1,18.05
CCn1nc(C)c2c1cnn2CCNS(=O)(=O)c1cccs1,9.915
Cc1cc(C)c(CNC(=O)N(C)Cc2cccc(C#N)c2)c(=O)[nH]1,14.29